PubChem BioAssay AID504772 – Drosophila RNAi Screening Center, 2011
Aim: 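Genes that raise or lower Wnt activity at the LRP6 co-receptor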 (primary screen). System: Drosophila clone 8 cells. Reagent: long dsRNA against Drosophila genes. Time to read-out: four days. Treatment: pathway switched on by co-transfected constitutively active LRP6 lacking its extracellular part (DeltaNLRP6). Measurement: 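Light from a beta-catenin-dependent firefly luciferase reporter (dTF12) relative to co-transfected Renilla luciferase, given as up or down, after four days with Wnt signalling driven by truncated active LRP6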. Hit rule: 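Picked genes show at least a doubling of Wnt reporter light upon knockdown and have a known human equivalent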. Calls: active = picked as conserved enhancer hit; inactive = not picked.
The reagents shown are a selection, not the whole library. 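Only primary screen hits listed, as up or down without numbers; fold changes behind calls not deposited; all reporter-lowering hits marked not picked.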 Unmarked entries are inactive. The numbers tell different reagents against one gene apart. A plus sign joins genes that one reagent is predicted to hit. Not stated in the record: the amount of reagent, the dose of the treatment.

Target gene | reagent no. | reporter change after knockdown
BtbVII (GeneID 38376) | 1 | reporter signal went up
CG4502 (GeneID 34002) | 1 | reporter signal went down
DMAP1 (GeneID 37339) | 1 | reporter signal went up
CkIalpha (GeneID 32221) | 1 | reporter signal went up
Acox3 (GeneID 33898) | 1 | reporter signal went up
eIF5B (GeneID 44261) | 1 | reporter signal went down
Bre1 (GeneID 38652) | 1 | reporter signal went up
CoRest (GeneID 32941) | 1 | reporter signal went down
LysS (GeneID 38130) | 1 | reporter signal went down
His2B:CG33870 + His2B:CG33868 + His2B:CG33882 + 21 more | 1 | reporter signal went up
Mi-2 (GeneID 40170) | 1 | reporter signal went up
sick (GeneID 35277) | 1 | reporter signal went down
Kap-alpha3 (GeneID 41158) | 1 | reporter signal went up
RpL13A (GeneID 40687) | 1 | reporter signal went down
rin (GeneID 47998) | 1 | reporter signal went up
dgt1 (GeneID 43529) | 1 | reporter signal went up (active)
CarT (GeneID 35334) | 1 | reporter signal went down
Axn (GeneID 43565) | 1 | reporter signal went up
btd (GeneID 31912) | 1 | reporter signal went up
mbl (GeneID 36945) | 1 | reporter signal went down
CG13148 (GeneID 36398) | 1 | reporter signal went up
psq (GeneID 36118) | 1 | reporter signal went down
Taf9 (GeneID 32762) | 1 | reporter signal went up
trio (GeneID 43974) | 1 | reporter signal went down
CG4849 (GeneID 43358) | 1 | reporter signal went up
CG30089 (GeneID 36736) | 1 | reporter signal went down
CAP (GeneID 36084) | 1 | reporter signal went up
gish (GeneID 49701) | 1 | reporter signal went down
Rcd1 (GeneID 36560) | 1 | reporter signal went up
CCHa1 (GeneID 41711) | 1 | reporter signal went down
CG31145 (GeneID 42784) | 1 | reporter signal went down
Map205 (GeneID 43765) | 1 | reporter signal went up
srp (GeneID 41944) | 1 | reporter signal went down
SNRPG (GeneID 32636) | 1 | reporter signal went up
CG15894 (GeneID 31574) | 1 | reporter signal went up
CG8192 (GeneID 36723) | 1 | reporter signal went up
CG5938 (GeneID 43290) | 1 | reporter signal went up
CngA (GeneID 36806) | 1 | reporter signal went down
CG13737 (GeneID 39531) | 1 | reporter signal went down
CG10333 (GeneID 35112) | 1 | reporter signal went up
ACC (GeneID 35761) | 1 | reporter signal went down
Xrp1 (GeneID 42267) | 1 | reporter signal went down
CG32137 (GeneID 39537) | 1 | reporter signal went down
RpL27A (GeneID 33654) | 1 | reporter signal went up
CG1737 (GeneID 32077) | 1 | reporter signal went up
pnt (GeneID 42757) | 1 | reporter signal went down
Rnb (GeneID 43513) | 1 | reporter signal went down
ssx (GeneID 31086) | 1 | reporter signal went down
unc-13-4A (GeneID 38801) | 1 | reporter signal went down
CG32985 (GeneID 326244) | 1 | reporter signal went up
Hsc70-3 (GeneID 32133) | 1 | reporter signal went up (active)
NAT1 (GeneID 46020) | 1 | reporter signal went up
bon (GeneID 44235) | 1 | reporter signal went up
TfIIA-S (GeneID 42822) | 1 | reporter signal went down
CG11123 (GeneID 35664) | 1 | reporter signal went up
SmB (GeneID 34426) | 1 | reporter signal went up
CG2993 (GeneID 40924) | 1 | reporter signal went up
U2af38 (GeneID 33201) | 1 | reporter signal went up
Prp8 (GeneID 36304) | 1 | reporter signal went up
Tpst (GeneID 32312) | 1 | reporter signal went down
CG42686 (retired record) (GeneID 42674) | 1 | reporter signal went down
Spt20 (GeneID 39522) | 1 | reporter signal went up
CG14017 (GeneID 33787) | 1 | reporter signal went down
OtopLc (GeneID 7354434) | 1 | reporter signal went down
Bili (GeneID 43019) | 1 | reporter signal went up (active)
Brr2 (GeneID 39737) | 1 | reporter signal went up
mask (GeneID 50070) | 1 | reporter signal went down
gw (GeneID 43808) | 1 | reporter signal went up (active)
CG30460 (GeneID 36924) | 1 | reporter signal went down
Bx (GeneID 32846) | 1 | reporter signal went down

The list goes on; the last 13 above are carried over.
Target gene | reagent no. | reporter change after knockdown
U2af38 (GeneID 33201) | 1 | reporter signal went up
Prp8 (GeneID 36304) | 1 | reporter signal went up
Tpst (GeneID 32312) | 1 | reporter signal went down
CG42686 (retired record) (GeneID 42674) | 1 | reporter signal went down
Spt20 (GeneID 39522) | 1 | reporter signal went up
CG14017 (GeneID 33787) | 1 | reporter signal went down
OtopLc (GeneID 7354434) | 1 | reporter signal went down
Bili (GeneID 43019) | 1 | reporter signal went up (active)
Brr2 (GeneID 39737) | 1 | reporter signal went up
mask (GeneID 50070) | 1 | reporter signal went down
gw (GeneID 43808) | 1 | reporter signal went up (active)
CG30460 (GeneID 36924) | 1 | reporter signal went down
Bx (GeneID 32846) | 1 | reporter signal went down
CG6118 (GeneID 41884) | 1 | reporter signal went down
Bx42 (GeneID 31840) | 1 | reporter signal went up (active)
Sym (GeneID 40709) | 1 | reporter signal went down
Taf1 (GeneID 40813) | 1 | reporter signal went up
Rcd2 (GeneID 40283) | 1 | reporter signal went up
ttk (GeneID 48317) | 1 | reporter signal went down
CG32365 (GeneID 38876) | 1 | reporter signal went down
emb (GeneID 34167) | 1 | reporter signal went up
msi (GeneID 43087) | 1 | reporter signal went up
MBD-R2 (GeneID 41498) | 1 | reporter signal went up
rno (GeneID 38027) | 1 | reporter signal went down
Hk (GeneID 31955) | 1 | reporter signal went down
Pp1-13C (GeneID 48531) | 1 | reporter signal went up (active)
eIF3g1 (GeneID 31243) | 1 | reporter signal went up
Elp4 (GeneID 33775) | 1 | reporter signal went down
IntS1 (GeneID 37840) | 1 | reporter signal went down
Smr (GeneID 32225) | 1 | reporter signal went down
ct (GeneID 44540) | 1 | reporter signal went down
l(1)10Bb (GeneID 32069) | 1 | reporter signal went up
CkIIalpha (GeneID 48448) | 1 | reporter signal went down
Sf3a2 (GeneID 39456) | 1 | reporter signal went up
PNUTS (GeneID 33270) | 1 | reporter signal went down
lgs (GeneID 43791) | 1 | reporter signal went down
Tlk (GeneID 318206) | 1 | reporter signal went down
Spt6 (GeneID 44000) | 1 | reporter signal went down
jub (GeneID 32351) | 1 | reporter signal went down
mof (GeneID 31518) | 1 | reporter signal went up
eRF1 (GeneID 40240) | 1 | reporter signal went down
CG30053 (GeneID 246419) | 1 | reporter signal went up
dlp (GeneID 39596) | 1 | reporter signal went up
dlp (GeneID 39596) | 2 | reporter signal went up
E23 (GeneID 43895) | 1 | reporter signal went down
osa (GeneID 42130) | 1 | reporter signal went up
drn (GeneID 41114) | 1 | reporter signal went down
hyx (GeneID 41086) | 1 | reporter signal went down
CG32772 (GeneID 31420) | 1 | reporter signal went up
CG42404 (GeneID 41842) | 1 | reporter signal went down
Nup62 (GeneID 36830) | 1 | reporter signal went up
Rbp9 (GeneID 33498) | 1 | reporter signal went up
CG12491 + CG34105 | 1 | reporter signal went up
